# From the supplement of paper PMC8728848
# The list shows a part of the results.
# B1: Lb MiSSP8 (Laccaria bicolor) (protein)
# chain: MYFHTLFACATLMLITTAHASPTVINSLDSRKADLNGDVEARHAADWRRDSDWRRDSDWRRDSDWRRDSD
# Columns and labels:
# Assay in all cases: glycan array binding signal (z-score within array); higher = stronger binding
# Settings in all cases: glycan notation: IUPAC condensed, linker removed
# [1] = molecular target: Fuc(a1-2)[Gal(a1-3)]Gal(b1-4)GlcNAc(b1-2)Man(a1-3)[Fuc(a1-2)[Gal(a1-3)]Gal(b1-4)GlcNAc(b1-2)Man(a1-6)]Man(b1-4)GlcNAc(b1-4)[Fuc(a1-6)]GlcNAc
# Outline: (§1)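 Columns mapping to the same glycan were averaged after glycan names were converted to IUPAC-condensed notation. The data come from 3228 arrays in the Consortium for Functional Glycomics database, limited to those with an available protein sequence. Binding is reported as a within-array Z-score averaged across arrays of one protein sequence and across linkers.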
# [2] = molecular target: Fuc(a1-2)[Gal(a1-3)]Gal(b1-4)GlcNAc(b1-3)GalNAc
# Outline: as §1
# [3] = molecular target: Fuc(a1-2)[Gal(a1-3)]Gal(b1-4)GlcNAc(b1-3)[Fuc(a1-2)[Gal(a1-3)]Gal(b1-4)GlcNAc(b1-6)]GalNAc
# Outline: as §1
# [4] = molecular target: Fuc(a1-2)[Gal(a1-3)]Gal(b1-4)GlcNAc(b1-6)GalNAc
# Outline: as §1
# [5] = molecular target: Fuc(a1-2)[Gal(a1-3)]Gal(b1-4)[Fuc(a1-3)]Glc
# Outline: as §1
# [6] = molecular target: Fuc(a1-2)[Gal(a1-3)]Gal(b1-4)[Fuc(a1-3)]GlcNAc
# Outline: as §1
# [7] = molecular target: Fuc(a1-2)[Gal(a1-3)]Gal(b1-4)[Fuc(a1-3)]GlcNAc(b1-3)GalNAc
# Outline: as §1
# [8] = molecular target: Fuc(a1-2)[Gal(a1-4)]Gal(b1-4)GlcNAc
# Outline: as §1
# [9] = molecular target: Fuc(a1-2)[GalNAc(a1-3)]Gal
# Outline: as §1
# [10] = molecular target: Fuc(a1-2)[GalNAc(a1-3)]Gal(b1-3)GalNAc(a1-3)[Fuc(a1-2)]Gal(b1-4)GlcNAc
# Outline: as §1
# [11] = molecular target: Fuc(a1-2)[GalNAc(a1-3)]Gal(b1-3)GalNAc(b1-3)Gal(a1-4)Gal(b1-4)Glc
# Outline: as §1
# [12] = molecular target: Fuc(a1-2)[GalNAc(a1-3)]Gal(b1-3)GlcNAc
# Outline: as §1
# [13] = molecular target: Fuc(a1-2)[GalNAc(a1-3)]Gal(b1-3)GlcNAc(b1-2)Man(a1-3)[Fuc(a1-2)[GalNAc(a1-3)]Gal(b1-3)GlcNAc(b1-2)Man(a1-6)]Man(b1-4)GlcNAc(b1-4)GlcNAc
# Outline: as §1
# [14] = molecular target: Fuc(a1-2)[GalNAc(a1-3)]Gal(b1-3)GlcNAc(b1-2)Man(a1-3)[Fuc(a1-2)[GalNAc(a1-3)]Gal(b1-3)GlcNAc(b1-2)Man(a1-6)]Man(b1-4)GlcNAc(b1-4)[Fuc(a1-6)]GlcNAc
# Outline: as §1
# [15] = molecular target: Fuc(a1-2)[GalNAc(a1-3)]Gal(b1-3)GlcNAc(b1-3)GalNAc
# Outline: as §1
# [16] = molecular target: Fuc(a1-2)[GalNAc(a1-3)]Gal(b1-3)GlcNAc(b1-6)GalNAc
# Outline: as §1
# [17] = molecular target: Fuc(a1-2)[GalNAc(a1-3)]Gal(b1-4)Glc
# Outline: as §1
# [18] = molecular target: Fuc(a1-2)[GalNAc(a1-3)]Gal(b1-4)GlcNAc
# Outline: as §1
# [19] = molecular target: Fuc(a1-2)[GalNAc(a1-3)]Gal(b1-4)GlcNAc(b1-2)Man
# Outline: as §1
# [20] = molecular target: Fuc(a1-2)[GalNAc(a1-3)]Gal(b1-4)GlcNAc(b1-2)Man(a1-3)[Fuc(a1-2)[GalNAc(a1-3)]Gal(b1-4)GlcNAc(b1-2)Man(a1-6)]Man(b1-4)GlcNAc(b1-4)GlcNAc
# Outline: as §1
# [21] = molecular target: Fuc(a1-2)[GalNAc(a1-3)]Gal(b1-4)GlcNAc(b1-2)Man(a1-3)[Fuc(a1-2)[GalNAc(a1-3)]Gal(b1-4)GlcNAc(b1-2)Man(a1-6)]Man(b1-4)GlcNAc(b1-4)[Fuc(a1-6)]GlcNAc
# Outline: as §1
# [22] = molecular target: Fuc(a1-2)[GalNAc(a1-3)]Gal(b1-4)GlcNAc(b1-3)Gal(b1-4)GlcNAc
# Outline: as §1
# [23] = molecular target: Fuc(a1-2)[GalNAc(a1-3)]Gal(b1-4)GlcNAc(b1-3)Gal(b1-4)GlcNAc(b1-3)Gal(b1-4)GlcNAc
# Outline: as §1
# [24] = molecular target: Fuc(a1-2)[GalNAc(a1-3)]Gal(b1-4)GlcNAc(b1-3)GalNAc
# Outline: as §1
# [25] = molecular target: Fuc(a1-2)[GalNAc(a1-3)]Gal(b1-4)GlcNAc(b1-3)[Fuc(a1-2)[GalNAc(a1-3)]Gal(b1-4)GlcNAc(b1-6)]GalNAc
# Outline: as §1
# [26] = molecular target: Fuc(a1-2)[GalNAc(a1-3)]Gal(b1-4)GlcNAc(b1-6)GalNAc
# Outline: as §1
# [27] = molecular target: Fuc(a1-2)[GalNAc(a1-3)]Gal(b1-4)[Fuc(a1-3)]GlcNAc
# Outline: as §1
# [28] = molecular target: Fuc(a1-2)[GalNAc(a1-3)]Gal(b1-4)[Fuc(a1-3)]GlcNAc(b1-3)GalNAc
# Outline: as §1
# [29] = molecular target: Fuc(a1-2)[GalNAc(a1-4)]Gal(b1-4)GlcNAc
# Outline: as §1
# [30] = molecular target: Fuc(a1-2)[GalNAc(b1-3)]Gal
# Outline: as §1
# Fuc(a1-3)GlcNAc = molecular target: Fuc(a1-3)GlcNAc
# Outline: as §1
# [31] = molecular target: Fuc(a1-3)[Gal(b1-4)]Glc6S
# Outline: as §1
# [32] = molecular target: Fuc(a1-3)[Gal(b1-4)]GlcNAc
# Outline: as §1
# [33] = molecular target: Fuc(a1-3)[Gal(b1-4)]GlcNAc(b1-2)Man
# Outline: as §1
# [34] = molecular target: Fuc(a1-3)[Gal(b1-4)]GlcNAc(b1-2)Man(a1-3)[Fuc(a1-3)[Gal(b1-4)]GlcNAc(b1-2)Man(a1-6)]Man(b1-4)GlcNAc(b1-4)GlcNAc
# Outline: as §1
# [35] = molecular target: Fuc(a1-3)[Gal(b1-4)]GlcNAc(b1-2)Man(a1-3)[Fuc(a1-3)[Gal(b1-4)]GlcNAc(b1-2)Man(a1-6)]Man(b1-4)GlcNAc(b1-4)[Fuc(a1-6)]GlcNAc
# Outline: as §1
# [36] = molecular target: Fuc(a1-3)[Gal(b1-4)]GlcNAc(b1-3)Gal(b1-3)[Fuc(a1-4)]GlcNAc
# Outline: as §1
# [37] = molecular target: Fuc(a1-3)[Gal(b1-4)]GlcNAc(b1-3)Gal(b1-4)[Fuc(a1-3)]GlcNAc
# Outline: as §1
# [38] = molecular target: Fuc(a1-3)[Gal(b1-4)]GlcNAc(b1-3)Gal(b1-4)[Fuc(a1-3)]GlcNAc(b1-3)Gal(b1-4)[Fuc(a1-3)]GlcNAc
# Outline: as §1
# [39] = molecular target: Fuc(a1-3)[Gal(b1-4)]GlcNAc(b1-3)GalNAc
# Outline: as §1
# [40] = molecular target: Fuc(a1-3)[Gal(b1-4)]GlcNAc(b1-6)GalNAc
# Outline: as §1
# [41] = molecular target: Fuc(a1-3)[Gal(b1-4)]GlcNAc(b1-6)[Gal(b1-3)GlcNAc(b1-3)]Gal(b1-4)Glc
# Outline: as §1
# [42] = molecular target: Fuc(a1-3)[Gal(b1-4)]GlcNAc6S
# Outline: as §1
# [43] = molecular target: Fuc(a1-3)[Gal3S(b1-4)]Glc
# Outline: as §1
# [44] = molecular target: Fuc(a1-3)[Gal3S(b1-4)]GlcNAc
# Outline: as §1
binder,measurement,setting,value
B1,glycan array binding signal (z-score),[1],-0.033
same,glycan array binding signal (z-score),[2],-0.778
same,glycan array binding signal (z-score),[3],-0.571
same,glycan array binding signal (z-score),[4],-0.53
same,glycan array binding signal (z-score),[5],-0.778
same,glycan array binding signal (z-score),[6],-0.005
same,glycan array binding signal (z-score),[7],-0.806
same,glycan array binding signal (z-score),[8],0.685
same,glycan array binding signal (z-score),[9],-0.616
same,glycan array binding signal (z-score),[10],-0.847
same,glycan array binding signal (z-score),[11],1.36
same,glycan array binding signal (z-score),[12],0.416
same,glycan array binding signal (z-score),[13],-0.219
same,glycan array binding signal (z-score),[14],-0.419
same,glycan array binding signal (z-score),[15],0.582
same,glycan array binding signal (z-score),[16],-0.854
same,glycan array binding signal (z-score),[17],-0.33
same,glycan array binding signal (z-score),[18],-0.502
same,glycan array binding signal (z-score),[19],-0.606
same,glycan array binding signal (z-score),[20],0.492
same,glycan array binding signal (z-score),[21],-0.074
same,glycan array binding signal (z-score),[22],-0.751
same,glycan array binding signal (z-score),[23],0.851
same,glycan array binding signal (z-score),[24],-0.785
same,glycan array binding signal (z-score),[25],-0.702
same,glycan array binding signal (z-score),[26],-0.647
same,glycan array binding signal (z-score),[27],0.83
same,glycan array binding signal (z-score),[28],0.402
same,glycan array binding signal (z-score),[29],-0.509
same,glycan array binding signal (z-score),[30],-0.336
same,glycan array binding signal (z-score),Fuc(a1-3)GlcNAc,0.437
same,glycan array binding signal (z-score),[31],1.35
same,glycan array binding signal (z-score),[32],-0.088
same,glycan array binding signal (z-score),[33],-0.516
same,glycan array binding signal (z-score),[34],-0.709
same,glycan array binding signal (z-score),[35],0.685
same,glycan array binding signal (z-score),[36],1.1
same,glycan array binding signal (z-score),[37],1.11
same,glycan array binding signal (z-score),[38],-0.675
same,glycan array binding signal (z-score),[39],-0.578
same,glycan array binding signal (z-score),[40],-0.454
same,glycan array binding signal (z-score),[41],0.713
same,glycan array binding signal (z-score),[42],1.99
same,glycan array binding signal (z-score),[43],0.243
same,glycan array binding signal (z-score),[44],-0.129

# Laid out differently: results already given.
binder | measurement | setting | value
B1 | glycan array binding signal (z-score) | [28] | 0.402
same | glycan array binding signal (z-score) | [29] | -0.509
same | glycan array binding signal (z-score) | [40] | -0.454
